Measurements from paper PMC9470594.
The exact form of at least one protein or probe is not confirmed. Weaker means in comparison with the reference protein, sequence or condition of that experiment.

Chains of the proteins cited; added tags and fusions are not shown.
UniProt A0A804M0V9, entry or part of it: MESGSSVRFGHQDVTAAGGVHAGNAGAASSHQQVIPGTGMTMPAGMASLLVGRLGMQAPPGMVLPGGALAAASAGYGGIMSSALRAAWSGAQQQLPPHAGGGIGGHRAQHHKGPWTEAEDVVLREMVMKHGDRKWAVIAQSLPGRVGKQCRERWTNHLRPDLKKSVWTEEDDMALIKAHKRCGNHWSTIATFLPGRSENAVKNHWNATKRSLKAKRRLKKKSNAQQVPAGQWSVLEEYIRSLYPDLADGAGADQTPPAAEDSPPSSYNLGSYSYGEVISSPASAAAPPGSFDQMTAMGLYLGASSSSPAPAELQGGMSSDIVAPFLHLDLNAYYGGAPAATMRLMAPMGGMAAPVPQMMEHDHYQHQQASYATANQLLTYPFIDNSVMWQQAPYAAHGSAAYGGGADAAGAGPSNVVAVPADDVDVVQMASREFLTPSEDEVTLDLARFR

Target: DED1 (R2R3-MYB), GST fusion (Zea mays) (UniProt A0A804M0V9)
Test: competition with a labelled probe
Conditions: 5 mM Mg2+, EMSA: 50 ng DED1-GST, 6 ng probe in 20 uL 10 mM Tris pH 7.5, 50 mM KCl, 1 mM DTT, 2.5% glycerol, 5 mM MgCl2, 0.05% NP-40, 25 C, 20 min, recombinant protein, protein details: GST (N-terminal, pGEX-4T-1)

“TGTACAAATATTTCTACTGAAGACCTTTAAGAAACCACCTGTGGA (double strand) [fl3 mutant competitor]”: binds more weakly (100-fold unlabelled competitor vs fl3 probe).
“CTGAACCGTTTTTCGGTTTAGACCTTCTCTGCTGACTGAAGCTTC (double strand) [sus1 mutant competitor]”: binds more weakly (100-fold unlabelled competitor vs sus1 probe).
